The values below come from paper PMC11112747, “Cyanovirin-N Binding to N-Acetyl-D-glucosamine Requires Carbohydrate-Binding Sites on Two Different Protomers” (Biochemistry, 2024).

A short description of the series: ITC binding of CV-N, CVN2 and variants to ManNAc. The note with it: one-set of sites model, T = 298 K. The method, then:
Calorimetric titrations were carried out using an ITC200 device (Malvern Panalytical, Malvern, UK). The concentration of mutant E41T dimer and monomeric variants CVN-E41T or CVN-E41A was 200 μM titrant of these proteins to the ligands ManNAc and GlcNAc in the cell. […] The protein concentrations were 44 μM (304 μM) CVN2L0 and 465 μM CVN-E41T in the ManNAc experiments, respectively, and determined to be between 200 and 300 μM for the GlcNAc experiment. Aliquots (2 μL) of CV-N titrant were injected at 2 min intervals into the sugar solution in the calorimetry cell with a total of 19 injections from a stirring syringe (operated at 750 rpm). Controls were prepared with identical amounts of titrant injected into PBS buffer at pH 7.4 at 298 K, and control values were subtracted from the results of the actual experiments. The values for enthalpy, binding affinity, and stoichiometry from the binding curve and the free energy and entropy of interaction were calculated using Microcal Origin v7.0 (OriginLab, Northampton, Massachusetts, USA) according to the standard expressions: ΔG = −RTln Ka, and ΔG = ΔH–TΔS.

B1: CVN2: tandem-linked dimeric CVN2 with zero-linker length; tandem repeat of two CV-N molecules (protein, UniProt P81180 1-101, looked up)
Cyanovirin-N: LGKFSQTCYNSAIQGSVLTSTCERTNGGYNTSSIDLNSVIENVDGSLKWQPSNFIETCRNTQLAGSSELAAECKTRAQQFVSTKINLDDHIANIDGTLKYE
modifications: tandem repeat dimer, zero linker
notes: tandem-linked dimeric CVN2 with zero-linker length; tandem repeat of two CV-N molecules
B1 yielded a stoichiometry of 1.96 ± 0.024. Under “PBS pH 7.4”, the “enthalpy ΔH” value is on record as “–68.3 ± 20.3 kcal/mol” and the “entropy TΔS” value is listed as “–61.2 ± 21.08 kcal/mol”.
